These are yes or no findings as the source states them, for the method shown. Binding seen in cells or lysates may run through a third protein. Some results given as binding are weak or reduced against the parent protein; the word gives no strength.
Target: mouse hFc-tagged IFN-β (mouse) (UniProt P01575)
Experiment: co-IP; about 500 µg of proteins of 30-fold concentrated hEP-CdM incubated with or without mouse hFc-tagged IFN-β (1:1000) at 4 °C overnight; protein G magnetic beads 4 h at 4 °C; five washes in IP buffer; eluted by boiling in loading buffer; n = 3; only the target purified

Amino acid sequences for entries named in this document (tags omitted). Residues count along the entry.
UniProt P01575, residues 22-182: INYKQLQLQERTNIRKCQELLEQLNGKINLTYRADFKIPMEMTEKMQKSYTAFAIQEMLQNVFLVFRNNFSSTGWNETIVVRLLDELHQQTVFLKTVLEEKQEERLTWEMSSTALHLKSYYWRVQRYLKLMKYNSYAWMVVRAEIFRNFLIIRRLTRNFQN
UniProt Q8WWA0, residues 19-298: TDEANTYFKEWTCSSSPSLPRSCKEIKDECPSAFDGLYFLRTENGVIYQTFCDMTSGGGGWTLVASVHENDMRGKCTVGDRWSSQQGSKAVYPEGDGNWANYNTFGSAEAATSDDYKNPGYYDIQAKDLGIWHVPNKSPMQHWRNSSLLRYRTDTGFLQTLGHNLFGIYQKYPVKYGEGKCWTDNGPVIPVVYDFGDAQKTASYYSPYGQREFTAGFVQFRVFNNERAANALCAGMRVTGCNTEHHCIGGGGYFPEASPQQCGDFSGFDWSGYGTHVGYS

intelectin 1 (ITLN1), human, secreted by hEPs (from UniProt Q8WWA0 19-298)
binding: binds

Reference: publication PMC10520683
